Data taken from PubChem BioAssay AID1688 (National Center for Advancing Translational Sciences (NCATS), 2009).
The whole screen tested about 220,000 compounds, of which about 2,400 (1.1%) were called active. The inconclusive results got no clear call from the source; some entries with a clear call stand among them for comparison. The call rests on the fitted dose curve; in most records, active means well fitted inhibition curve with a large enough effect; inconclusive means small, poorly fitted or top-dose-only effect, or effect the other way; inactive means no such curve, though single readings can be large or run the other way. Where the call is inconclusive, the potency comes from a doubtful curve fit.

test: qHTS Multiplex Assay to Identify Dual Action Probes in a Cell Model of Huntington: Aggregate Formation (GFP); details: PC12 HttQ103-GFP aggregates, Acumen cytometry, 40 h; activity change, negative = inhibition: at 46.1 µM (top of the series) unless noted; further: nearly all actives have a fitted effect of over 60% in size
In short: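 Aggregate formation scored by laser-scanning cytometer (488 excitation, 500–530 emission) in lysed PC12 cells expressing Q103-GFP after 100 nM tebufenozide induction; library tested in dose series, with ATPLite reagent added in the multiplex.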
On the % scale 0 is the no-effect control and ±100 the full control effect; potency means the concentration at half of the fitted maximal effect.

| Structure (SMILES) | activity change, negative = inhibition | Potency |
| --- | --- | --- |
| Nn1c(Cc2ccccc2F)nnc1SCCOc1ccc(Cl)cc1 | inactive: -6.46% | – |
| COc1cccc(C(c2nnnn2Cc2ccco2)N2CCN(c3cccc(C)c3C)CC2)c1OC (configuration not stated) | – | inconclusive: 12.6 µM [inhibitor, single point] |
| CCOc1nc(-c2ccc(C)cc2)ccc1-c1noc(COC)n1 | – | inconclusive: 1 µM [inhibitor, full curve, poor fit] |
| CCOC(=O)/C=C1\SCC(=O)N1Cc1ccc(Br)cc1 | – | inconclusive: 10 µM [inhibitor, partial curve, poor fit] |
| COc1ccc(N2CCN(C(=O)c3ccc(CS(=O)(=O)c4ccc(OC)cc4)o3)CC2)cc1 | inactive: 2.92% | – |
| Cc1cc(C)c2[nH]c(O)c(N=NC(=S)NCC3CCCO3)c2c1 (configuration not stated) | inactive: -20.9% | – |
| COCCNC(=O)c1ccc(C2SCC(=O)N2Cc2ccco2)cc1 (configuration not stated) | inactive: -7.14% [at 9.22 µM] | – |
| CC(=O)N1CCc2cc(S(=O)(=O)N3CCOCC3)ccc21 | inactive: -4.38% | – |
| CCOc1cc(/C=N/Nc2nc(N3CCCC3)nc(N3CCCC3)n2)ccc1O | – | inconclusive: 35.5 µM [inhibitor, single point] |
| CNC(=O)c1sc2nc(-c3ccc(OC)cc3)cn2c1C | – | inconclusive: 12.6 µM [inhibitor, partial curve, poor fit] |
| CC(NC(=O)c1ccc(=O)oc1)c1ccccc1 (configuration not stated) | – | inconclusive: 35.5 µM [activator, single point] |
| CC(C)OC(=O)N(C)c1ccc(C(O)(C(F)(F)F)C(F)(F)F)cc1 | – | inconclusive: 22.4 µM [inhibitor, single point] |
| CCOc1ccc(NC(=O)CCC(=O)OC)cc1 | – | inconclusive: 20 µM [inhibitor, partial curve] |
| Cc1nnc(SCC(=O)c2ccc(Cl)cc2)n(N)c1=O | inactive: 6.77% [at 9.22 µM] | – |
| CCOC(=O)C(C(=O)OCC)N(C#N)c1nc(N(C)C)nc(N(C)C)n1 | – | inconclusive: 3.16 µM [inhibitor, single point] |
| COc1ccc(NC(=O)Cn2cnc3c(cnn3C(C)(C)C)c2=O)cc1OC | inactive: -3.86% | – |
| COc1ccc(CN(C(=O)c2cccc(OC)c2)C2CCS(=O)(=O)C2)cc1 (configuration not stated) | inactive: -13.4% [at 9.22 µM] | – |
| COc1ccc2oc(=O)c(-c3csc(Nc4cccc(O)c4)n3)cc2c1 | – | inconclusive: 15.8 µM [inhibitor, single point] |
| COc1cc(C2C(C#N)=C(N)N(Nc3ccccc3)C3=C2C(=O)CC(C)(C)C3)ccc1OCc1cccc(F)c1 (configuration not stated) | – | inconclusive: 22.4 µM [inhibitor, partial curve] |

Structures above with an aryl methoxy group (seven):

| Structure (SMILES) | activity change, negative = inhibition | Potency |
| --- | --- | --- |
| COc1cccc(C(c2nnnn2Cc2ccco2)N2CCN(c3cccc(C)c3C)CC2)c1OC (configuration not stated) | – | inconclusive: 12.6 µM [inhibitor, single point] |
| COc1ccc(N2CCN(C(=O)c3ccc(CS(=O)(=O)c4ccc(OC)cc4)o3)CC2)cc1 | inactive: 2.92% | – |
| CNC(=O)c1sc2nc(-c3ccc(OC)cc3)cn2c1C | – | inconclusive: 12.6 µM [inhibitor, partial curve, poor fit] |
| COc1ccc(NC(=O)Cn2cnc3c(cnn3C(C)(C)C)c2=O)cc1OC | inactive: -3.86% | – |
| COc1ccc(CN(C(=O)c2cccc(OC)c2)C2CCS(=O)(=O)C2)cc1 (configuration not stated) | inactive: -13.4% [at 9.22 µM] | – |
| COc1ccc2oc(=O)c(-c3csc(Nc4cccc(O)c4)n3)cc2c1 | – | inconclusive: 15.8 µM [inhibitor, single point] |
| COc1cc(C2C(C#N)=C(N)N(Nc3ccccc3)C3=C2C(=O)CC(C)(C)C3)ccc1OCc1cccc(F)c1 (configuration not stated) | – | inconclusive: 22.4 µM [inhibitor, partial curve] |

The list continues.

| Structure (SMILES) | activity change, negative = inhibition | Potency |
| --- | --- | --- |
| O=C(Oc1ccc2c(-c3ccccc3)cc(=O)oc2c1)C1CCCCC1 | – | inconclusive: 12.6 µM [inhibitor, single point] |
| COc1ccc(NC(=O)c2ccccc2NC(=O)COc2ccccc2)cc1 | – | inconclusive: 0.562 µM [inhibitor, full curve, poor fit] |
| O=C(NCc1ccc(OC(F)(F)F)cc1)C1CC(c2ccccc2C(F)(F)F)=NO1 (configuration not stated) | – | inconclusive: 0.501 µM [inhibitor, partial curve] |
| CC(C)(Oc1ccc(Cl)cc1)C(=O)NCc1ccco1 | – | inconclusive: 12.6 µM [activator, single point] |
| Cc1nc(N2CCN(c3ccccc3)CC2)nc2c1C(=O)CC(C)C2 (configuration not stated) | – | inconclusive: 28.2 µM [inhibitor, single point] |
| COc1ccc(/C=N/Nc2nonc2N)cc1 | inactive: -7.28% | – |
| CCOc1ccc(NC(=S)NNc2ccnc3cc(Cl)ccc23)cc1 | inactive: -8.48% | – |
| Cc1ccc(C(=O)Nc2ccc(S(=O)(=O)N3CCc4ccccc43)cc2)o1 | – | inconclusive: 22.4 µM [inhibitor, single point] |
| Cc1cc(=O)oc2cc(OCc3nnc(-c4ccccc4Br)o3)ccc12 | inactive: -19.1% | – |
| CCC(C)NC(=O)CSc1nc2cc3c(cc2c(=O)n1Cc1ccco1)OCO3 (configuration not stated) | – | inconclusive: 35.5 µM [inhibitor, single point] |
| Cc1cc(/C=C2\Cc3ccccc3C2=O)c(C)n1-c1ccccc1 | – | inconclusive: 7.94 µM [activator, partial curve] |
| Cc1ccc(-c2csc3ncnc(SCC(=O)Nc4nnc(C)s4)c23)cc1 | – | inconclusive: 35.5 µM [activator, single point] |
| O=C(c1cn(-c2ccccc2)nc1-c1cccc([N+](=O)[O-])c1)N1CCCCC1 | inactive: -5.63% | – |
| CCn1c(=O)cc(SCC(=O)NCCN2CCN(Cc3ccccc3)CC2)c2ccccc21 | – | inconclusive: 11.2 µM [activator, single point] |
| O=C(Nc1cccnc1)C1(F)C(F)(F)C(F)(F)C(F)(F)C(F)(F)C1(F)F | – | active: 6.31 µM |
| c1ccc(Cc2noc(CN3CCCN(C4Cc5ccccc5C4)CC3)n2)cc1 | inactive: 13.7% [at 9.22 µM] | – |
| Cc1cc(C)c2nc(C(F)(F)F)c(C#N)c(N)c2c1 | – | active: 5.62 µM |
| COc1ccc(-n2c(=O)c3ccccc3n(CC(=O)NC3CCCC3)c2=O)c(OC)c1 | – | inconclusive: 35.5 µM [inhibitor, single point] |
